PubChem BioAssay AID1259308 | NCATS – 2017
Assay: 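Genes whose loss raises luciferase production in HEK293 cells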 (primary screen). Cell system: human HEK293 embryonic kidney cells stably expressing firefly luciferase (HEK-CMV-Luc2-Hygro). Knock-down reagent: single siRNA against human genes, 0.8 pmol siRNA per well. Timing: 72 h. Detection: 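Reporter luminescence and viable-cell signal on separate replicate plates, given as percent of non-targeting control and median/MAD z-scores, plus per-cell luciferase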. Scale: total luciferase, z-score and total luciferase, % of control: higher = more reporter protein produced; luciferase per cell, z-score: higher = more reporter output per viable cell; viable cells, % of control: higher = more viable cells. Rule for the call: 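An siRNA counts as active if its total luciferase robust z-score exceeds 3; genes with two or more such siRNAs out of three were retested with fresh siRNAs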. Calls: active = raised luciferase; inactive = no rise.
In all, the deposit lists about 59,000 reagents; shown is a random part of them. Of all reagents, about 1,510 (2.6%) got an active call. 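Calls use total luciferase alone and ignore viability, so some active siRNAs may act by altering cell number.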 Reagents against one gene are numbered here.

The first 4 entries, ahead of the listing:
target gene	reagent	total luciferase, z-score	total luciferase, % of control	luciferase per cell, z-score	viable cells, % of control	activity call
IKZF3 (IKAROS family zinc finger 3)	1	-0.6	70	-0.955	101	inactive
IKZF3 (IKAROS family zinc finger 3)	2	0.519	92.2	0.619	87.5	inactive
IKZF3 (IKAROS family zinc finger 3)	3	0.36	89	0.201	94.4	inactive
ZBTB45 (zinc finger and BTB domain containing 45)	1	2.85	139	2.16	87.8	inactive

The listing, repeating the preview:
target gene	reagent	total luciferase, z-score	total luciferase, % of control	luciferase per cell, z-score	viable cells, % of control	activity call
IKZF3 (IKAROS family zinc finger 3)	1	-0.6	70	-0.955	101	inactive
IKZF3 (IKAROS family zinc finger 3)	2	0.519	92.2	0.619	87.5	inactive
IKZF3 (IKAROS family zinc finger 3)	3	0.36	89	0.201	94.4	inactive
ZBTB45 (zinc finger and BTB domain containing 45)	1	2.85	139	2.16	87.8	inactive
ZBTB45 (zinc finger and BTB domain containing 45)	2	-0.146	79	0.751	72.4	inactive
ZBTB45 (zinc finger and BTB domain containing 45)	3	0.725	96.3	0.47	95.1	inactive
WNT3A (Wnt family member 3A)	1	-0.0806	80.3	0.135	86.6	inactive
WNT3A (Wnt family member 3A)	2	-1.1	60	-1.33	95.1	inactive
WNT3A (Wnt family member 3A)	3	0.314	88.1	0.993	75.8	inactive
RABL3 (RAB, member of RAS oncogene family like 3)	1	0.706	95.9	0.808	86.6	inactive
RABL3 (RAB, member of RAS oncogene family like 3)	2	-0.434	73.3	-0.369	90.2	inactive
RABL3 (RAB, member of RAS oncogene family like 3)	3	-0.964	62.7	-1.13	94.5	inactive
NCOR1 (nuclear receptor corepressor 1)	1	-0.529	71.4	-0.911	101	inactive
NCOR1 (nuclear receptor corepressor 1)	2	-1.61	49.8	1.01	42.7	inactive
NCOR1 (nuclear receptor corepressor 1)	3	0.777	97.3	1.42	74.9	inactive
WBP11P3 (WBP11 pseudogene 3)	1	1.26	107	2.84	56.6	inactive
WBP11P3 (WBP11 pseudogene 3)	2	2.62	134	2.96	68.6	inactive
WBP11P3 (WBP11 pseudogene 3)	3	1.43	110	3.36	50.9	inactive
ZNF845 (zinc finger protein 845)	1	0.896	99.7	0.801	90.2	inactive
ZNF845 (zinc finger protein 845)	2	0.337	88.6	-0.16	103	inactive
ZNF845 (zinc finger protein 845)	3	-0.529	71.4	-0.0812	81.5	inactive
CATSPERT (catsper channel auxiliary subunit tau)	1	1.09	104	1.37	80.8	inactive
CATSPERT (catsper channel auxiliary subunit tau)	2	1.37	109	0.727	101	inactive
CATSPERT (catsper channel auxiliary subunit tau)	3	-0.949	63	-0.587	82.2	inactive
CD244 (CD244 molecule)	1	-0.267	76.6	-0.367	94.2	inactive
CD244 (CD244 molecule)	2	-0.197	78	-0.791	107	inactive
CD244 (CD244 molecule)	3	-0.847	65	-0.266	77.9	inactive
OR8K3	1	0.162	85.1	-0.182	99.8	inactive
OR8K3	2	1.88	119	1.46	90.8	inactive
OR8K3	3	1.12	104	1.3	82.7	inactive
SIGIRR (single Ig and TIR domain containing)	1	1.27	107	1.14	88.8	inactive
SIGIRR (single Ig and TIR domain containing)	2	-0.435	73.2	-0.571	95.1	inactive
SIGIRR (single Ig and TIR domain containing)	3	0.421	90.3	0.021	100	inactive
GOLT1A (golgi transport 1A)	1	1.19	106	0.205	112	inactive
GOLT1A (golgi transport 1A)	2	1.78	117	1.16	96.7	inactive
GOLT1A (golgi transport 1A)	3	-1.36	54.8	-1.22	84.5	inactive
RPS10P9 (ribosomal protein S10 pseudogene 9)	1	-0.897	64	-0.295	77.4	inactive
RPS10P9 (ribosomal protein S10 pseudogene 9)	2	1.06	103	1.17	84.4	inactive
RPS10P9 (ribosomal protein S10 pseudogene 9)	3	1.89	119	2.15	75.8	inactive
ETFRF1 (electron transfer flavoprotein regulatory factor 1)	1	-0.325	75.4	-0.205	88.9	inactive
ETFRF1 (electron transfer flavoprotein regulatory factor 1)	2	-0.389	74.1	0.165	79.3	inactive
ETFRF1 (electron transfer flavoprotein regulatory factor 1)	3	-1.89	44.3	-1.77	78.9	inactive
TRIM71 (tripartite motif containing 71)	1	0.212	86.1	0.151	92.5	inactive
TRIM71 (tripartite motif containing 71)	2	2.11	124	1.69	88.6	inactive
TRIM71 (tripartite motif containing 71)	3	2.54	132	3.33	61.6	inactive
FOXD4L3 (forkhead box D4 like 3)	1	-0.894	64.1	1.3	50.8	inactive
FOXD4L3 (forkhead box D4 like 3)	2	0.992	102	0.623	96.4	inactive
FOXD4L3 (forkhead box D4 like 3)	3	0.431	90.5	0.411	90.7	inactive
VPS11 (VPS11 core subunit of CORVET and HOPS complexes)	1	0.195	85.8	0.423	85.7	inactive
VPS11 (VPS11 core subunit of CORVET and HOPS complexes)	2	-0.62	69.6	-1.21	107	inactive
VPS11 (VPS11 core subunit of CORVET and HOPS complexes)	3	-1.37	54.7	-1.5	90.6	inactive
NKAIN1 (sodium/potassium transporting ATPase interacting 1)	1	1.85	119	0.99	102	inactive
NKAIN1 (sodium/potassium transporting ATPase interacting 1)	2	0.295	87.8	0.247	91.9	inactive
NKAIN1 (sodium/potassium transporting ATPase interacting 1)	3	5.07	183	3.12	89.9	active
CSAG3 (CSAG family member 3)	1	-0.786	66.2	-0.934	94.7	inactive
CSAG3 (CSAG family member 3)	2	-0.44	73.1	-1	106	inactive
CSAG3 (CSAG family member 3)	3	0.326	88.4	0.892	78.1	inactive
CAPN6 (calpain 6)	1	0.365	89.1	-0.27	107	inactive
CAPN6 (calpain 6)	2	-0.457	72.8	-0.321	88.5	inactive
CAPN6 (calpain 6)	3	-0.81	65.8	-0.0706	74.9	inactive
TMEM198B (transmembrane protein 198B (pseudogene))	1	1.08	103	0.59	98.9	inactive
TMEM198B (transmembrane protein 198B (pseudogene))	2	-0.0728	80.4	-0.477	102	inactive
TMEM198B (transmembrane protein 198B (pseudogene))	3	-2.56	30.9	-4.05	100	inactive
ST6GALNAC5 (ST6 N-acetylgalactosaminide alpha-2,6-sialyltransferase 5)	1	-0.991	62.2	-1.46	102	inactive
ST6GALNAC5 (ST6 N-acetylgalactosaminide alpha-2,6-sialyltransferase 5)	2	-1.21	57.8	-0.729	78.3	inactive
ST6GALNAC5 (ST6 N-acetylgalactosaminide alpha-2,6-sialyltransferase 5)	3	-0.208	77.7	-0.187	91.3	inactive
WIPF1 (WAS/WASL interacting protein family member 1)	1	-0.929	63.4	-1.31	100	inactive
WIPF1 (WAS/WASL interacting protein family member 1)	2	-2.26	36.9	-1.65	63.7	inactive
WIPF1 (WAS/WASL interacting protein family member 1)	3	-0.883	64.3	-0.535	82.7	inactive
SLU7 (spliceosome associated SLU7)	1	0.123	84.3	2.35	50.7	inactive
SLU7 (spliceosome associated SLU7)	2	0.49	91.6	3.49	40.9	inactive
SLU7 (spliceosome associated SLU7)	3	1.36	109	3.42	49.4	inactive
SPATS2 (spermatogenesis associated serine rich 2)	1	0.53	92.4	0.556	89.2	inactive
SPATS2 (spermatogenesis associated serine rich 2)	2	0.449	90.8	-0.0211	102	inactive
SPATS2 (spermatogenesis associated serine rich 2)	3	0.874	99.3	0.719	91.8	inactive
